Laboratory results: patent US4950792A, “Substituted p,p'-methylene-bis-anilines” (Lonza Ltd., priority 1985, dated 1990)

How the values were obtained:
[1] = structural tear strength of the elastomer, DIN 53515; details: for STS (structural tear strength) at 20°: 20° C.; for STS (structural tear strength) at 60°: 60° C.
[2] = hardening: pot life and nail time of polyurethane mass
[3] = prepolymer PTMG-1000 TDI, amine 100 mol % in component B
[4] = prepolymer PCL-2000 TDI, amine 66 mol % in component B
[5] = prepolymer PCL-2000 TDI, amine 100 mol % in component B
[6] = prepolymer PCL-2000 MDI, amine 66 mol % in component B
[7] = prepolymer PCL-2000 MDI, amine 100 mol % in component B
[8] = prepolymer PTMG-1000 TDI, amine 80 mol % in component B
[9] = prepolymer PCL-2000 MDI, amine 66 mol % in component B, curing at 70° C.

Structure (SMILES) | STS (structural tear strength) at 20° [1, 3] [N/mm] | STS (structural tear strength) at 60° [1, 3] [N/mm] | NT (nail time) [2, 3] | STS (structural tear strength) at 20° [1, 4] [N/mm] | STS (structural tear strength) at 60° [1, 4] [N/mm] | NT (nail time) [2, 4] | further results
Nc1ccc(Cc2ccc(N)c(Cl)c2)cc1Cl [Amine I, 4,4'-methylene-bis(2-chloroaniline), reference compound] | 72 | 39 | 44 ' | – | – | – | –
Nc1ccc(Cc2ccc(N)cc2Cl)c(Cl)c1 [Amine II, 4,4'-Methylene-bis(3-chloroaniline), reference compound] | – | – | – | 35 | 5 | 30 ' | STS (structural tear strength) at 20° [1, 5]: 33 N/mm; STS (structural tear strength) at 60° [1, 5]: 8 N/mm; NT (nail time) [2, 5]: 5 '; PL (pot life) [2, 5]: 33 "
Cc1c(N)ccc(Cc2ccc(N)c(C)c2Cl)c1Cl [Amine III, 4,4'-methylene-bis (3-chloro-2-methylaniline), reference compound] | – | – | – | – | – | – | STS (structural tear strength) at 20° [1, 6]: 31 N/mm; STS (structural tear strength) at 60° [1, 6]: 16 N/mm; NT (nail time) [2, 6]: 9 '; PL (pot life) [2, 6]: 18 "
CCc1c(N)c(Cl)cc(Cc2cc(Cl)c(N)c(CC)c2Cl)c1Cl [Amine IV, 4,4'-Methylene-bis(2,5-dichloro-6-ethylaniline)] | – | – | – | 75 | 55 | 25 ' | –
CCC(C)c1cc(Cc2cc(C(C)CC)c(N)c(C(C)CC)c2Cl)c(Cl)c(C(C)CC)c1N (stereo not shown) [Amine IX, 4,4'-Methylene-bis-(3-chloro-2,6-di-sec-butylaniline)] | 67 | 32 | 18 ' | – | – | – | –
CCc1cc(Cc2cc(CC)c(N)c(CC)c2Cl)c(Cl)c(CC)c1N [Amine V, 4,4'-Methylene-bis-(3-chloro-2,6-diethylaniline)] | 84 | 79 | 23 ' | 58 | 38 | 53 ' | STS (structural tear strength) at 20° [1, 6]: 64 N/mm; STS (structural tear strength) at 60° [1, 6]: 37 N/mm; STS (structural tear strength) at 20° [1, 7]: 74 N/mm; STS (structural tear strength) at 60° [1, 7]: 61 N/mm; STS (structural tear strength) at 20° [1, 8]: 87 N/mm; STS (structural tear strength) at 60° [1, 8]: 51 N/mm; NT (nail time) [2, 6]: 9 '; PL (pot life) [2, 6]: 19 "; NT (nail time) [2, 7]: 5 '; PL (pot life) [2, 7]: 20 "; NT (nail time) [2, 8]: 28 '; PL (pot life) [2, 8]: 3 '
CCc1cc(Cc2cc(CC)c(N)c(C)c2Cl)c(Cl)c(C)c1N [Amine VI, 4,4'-Methylene-bis-(3-chloro-2-methyl-6-ethylaniline)] | – | – | – | 62 | 53 | 40 ' | –
Cc1cc(Cc2cc(C)c(N)c(C(C)C)c2Cl)c(Cl)c(C(C)C)c1N [Amine VII, 4,4'-Methylene-bis-(5-chloro-2-methyl-6-isopropylaniline)] | – | – | – | – | – | – | STS (structural tear strength) at 20° [1, 9]: 38 N/mm; STS (structural tear strength) at 60° [1, 9]: 22 N/mm; NT (nail time) [2, 9]: 7 '; PL (pot life) [2, 9]: 22 "
Cc1c(N)c(C(C)C)cc(Cc2cc(C(C)C)c(N)c(C)c2Cl)c1Cl [Amine VIII, 4,4'-Methylene-bis(3-chloro-2-methyl-6-isopropylaniline)] | – | – | – | 61 | 31 | 25 ' | –
CCC(C)c1c(N)c(C)cc(Cc2cc(C)c(N)c(C(C)CC)c2Cl)c1Cl (stereo not shown) [Amine X, 4,4'-Methylene-bis(5-chloro-2-methyl-6-sec-butylaniline)] | 52 | 32 | 16 ' | – | – | – | –
Cc1cc(Cc2cc(C)c(N)cc2Cl)c(Cl)cc1N [Amine XI, 4,4'-Methylene-bis(5-chloro-2-methylaniline), reference compound] | – | – | – | 57 | 29 | 35 ' | STS (structural tear strength) at 20° [1, 5]: 68 N/mm; STS (structural tear strength) at 60° [1, 5]: 37 N/mm; NT (nail time) [2, 5]: 29 '; PL (pot life) [2, 5]: 30 "
CCC(C)OC(=O)c1cc(N)c(Cl)c(N)c1 (stereo not shown) [Amine XII, 3,5-diamino-4-chloro-benzoic acid sec-butyl ester, reference compound] | 93 | 52 | 120 ' | – | – | – | –
